The source of these data is publication PMC9263130.

Chains of the proteins cited; added tags and fusions are not shown. Lines headed by an entry give the natural chain unless they say otherwise; changes in a name come on top.
UniProt O60674: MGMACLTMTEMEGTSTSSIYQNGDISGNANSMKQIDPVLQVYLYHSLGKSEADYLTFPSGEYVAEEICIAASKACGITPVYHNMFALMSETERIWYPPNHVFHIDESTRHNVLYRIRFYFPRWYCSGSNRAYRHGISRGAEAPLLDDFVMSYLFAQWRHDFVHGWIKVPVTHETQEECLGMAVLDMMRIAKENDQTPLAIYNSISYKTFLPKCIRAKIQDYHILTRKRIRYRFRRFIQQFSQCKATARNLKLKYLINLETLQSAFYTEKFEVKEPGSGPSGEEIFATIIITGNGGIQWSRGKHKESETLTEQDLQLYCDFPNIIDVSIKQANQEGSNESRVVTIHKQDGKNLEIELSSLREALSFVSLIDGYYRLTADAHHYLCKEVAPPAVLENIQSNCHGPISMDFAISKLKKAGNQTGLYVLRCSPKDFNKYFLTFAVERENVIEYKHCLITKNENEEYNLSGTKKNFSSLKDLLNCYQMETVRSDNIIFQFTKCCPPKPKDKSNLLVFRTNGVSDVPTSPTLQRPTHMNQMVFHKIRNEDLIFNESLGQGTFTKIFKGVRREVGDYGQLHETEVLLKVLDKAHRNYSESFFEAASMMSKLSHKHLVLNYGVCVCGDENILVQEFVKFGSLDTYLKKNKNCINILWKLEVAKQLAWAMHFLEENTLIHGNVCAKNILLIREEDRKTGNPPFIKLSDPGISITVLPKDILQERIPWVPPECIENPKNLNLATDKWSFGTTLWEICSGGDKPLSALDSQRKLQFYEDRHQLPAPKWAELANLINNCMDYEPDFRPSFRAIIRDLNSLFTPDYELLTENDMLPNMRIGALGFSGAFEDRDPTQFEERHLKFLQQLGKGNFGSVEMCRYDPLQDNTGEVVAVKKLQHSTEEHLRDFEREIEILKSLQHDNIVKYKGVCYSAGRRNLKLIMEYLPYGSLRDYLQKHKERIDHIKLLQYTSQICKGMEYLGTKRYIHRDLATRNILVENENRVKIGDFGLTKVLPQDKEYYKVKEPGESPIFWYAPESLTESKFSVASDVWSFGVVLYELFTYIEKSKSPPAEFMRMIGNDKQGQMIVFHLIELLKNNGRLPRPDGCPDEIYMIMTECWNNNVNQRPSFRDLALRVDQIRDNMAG

Results are given in words; binding and its absence hold for the method and conditions named. Binding seen in cells or lysates may run through a third protein. Some binding calls cover weakened binding; strength is not graded here. Sequences can lack the tags named with a protein.

The target in this experiment is JAK2 (endogenous in HEL cells, which harbour the JAK2V617F mutation) (human (endogenous in HEL)) (UniProt O60674). The experiment in a line: co-IP; HEL cells with 3 × Flag-CHST15 wild type or mutant; RIPA lysate, precleared with Protein A/G PLUS-agarose and control IgG; anti-JAK2 or anti-Flag-CHST15 antibody overnight at 4 °C; immunoblot.

B1: 3 × Flag-tagged wild-type CHST15 (carbohydrate sulfotransferase 15) (protein, UniProt Q7LFX5-2 1-506)
chain: MRHCINCCIQLLPDGAHKQQVNCQGGPHHGHQACPTCKGENKILFRVDSKQMNLLAVLEVRTEGNENWGGFLRFKKGKRCSLVFGLIIMTLVMASYILSGAHQELLISSPFHYGGFPSNPSLMDSENPSDTKEHHHQSSVNNISYMKDYPSIKLIINSITTRIEFTTRQLPDLEDLKKQELHMFSVIPNKFLPNSKSPCWYEEFSGQNTTDPYLTNSYVLYSKRFRSTFDALRKAFWGHLAHAHGKHFRLRCLPHFYIIGQPKCGTTDLYDRLRLHPEVKFSAIKEPHWWTRKRFGIVRLRDGLRDRYPVEDYLDLFDLAAHQIHQGLQASSAKEQSKMNTIIIGEASASTMWDNNAWTFFYDNSTDGEPPFLTQDFIHAFQPNARLIVMLRDPVERLYSDYLYFASSNKSADDFHEKVTEALQLFENCMLDYSLRACVYNNTLNNAMPVCTPPPRTPRAGPWQKELVCCYYASGIVGLRFSIGTERSVLMCKCCSPLFMDVKAEN
Take B1: the binding result was “binds”.
